The values that follow come from doi:10.1101/108068.

Chains of the proteins cited; added tags and fusions are not shown.
UniProt P25694, whole entry: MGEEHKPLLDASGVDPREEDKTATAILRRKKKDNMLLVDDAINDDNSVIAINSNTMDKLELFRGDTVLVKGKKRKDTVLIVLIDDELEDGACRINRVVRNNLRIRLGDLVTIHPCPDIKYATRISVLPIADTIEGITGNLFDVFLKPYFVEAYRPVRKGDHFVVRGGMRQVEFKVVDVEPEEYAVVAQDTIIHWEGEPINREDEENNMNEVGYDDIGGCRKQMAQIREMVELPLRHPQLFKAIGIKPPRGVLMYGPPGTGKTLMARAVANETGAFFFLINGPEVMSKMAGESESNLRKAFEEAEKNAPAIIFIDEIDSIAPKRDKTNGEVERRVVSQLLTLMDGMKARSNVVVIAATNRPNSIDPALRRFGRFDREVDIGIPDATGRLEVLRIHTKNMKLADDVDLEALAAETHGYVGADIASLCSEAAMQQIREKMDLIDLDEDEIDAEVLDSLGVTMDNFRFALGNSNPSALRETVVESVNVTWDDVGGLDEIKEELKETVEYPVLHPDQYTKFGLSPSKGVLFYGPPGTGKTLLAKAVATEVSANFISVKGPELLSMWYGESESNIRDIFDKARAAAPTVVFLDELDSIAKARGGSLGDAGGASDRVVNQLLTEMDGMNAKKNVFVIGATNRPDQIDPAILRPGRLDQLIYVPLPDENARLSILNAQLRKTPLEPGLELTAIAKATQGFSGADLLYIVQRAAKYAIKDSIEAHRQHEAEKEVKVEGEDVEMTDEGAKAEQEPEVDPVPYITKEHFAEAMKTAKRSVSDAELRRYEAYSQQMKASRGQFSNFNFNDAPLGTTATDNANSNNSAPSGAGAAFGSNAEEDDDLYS

Common to all, as to assay: co-IP
For experiment [1], the target named is T1, FLAG-tagged full-length Ubp12 (S. cerevisiae) (UniProt P39538).
T1 sequence: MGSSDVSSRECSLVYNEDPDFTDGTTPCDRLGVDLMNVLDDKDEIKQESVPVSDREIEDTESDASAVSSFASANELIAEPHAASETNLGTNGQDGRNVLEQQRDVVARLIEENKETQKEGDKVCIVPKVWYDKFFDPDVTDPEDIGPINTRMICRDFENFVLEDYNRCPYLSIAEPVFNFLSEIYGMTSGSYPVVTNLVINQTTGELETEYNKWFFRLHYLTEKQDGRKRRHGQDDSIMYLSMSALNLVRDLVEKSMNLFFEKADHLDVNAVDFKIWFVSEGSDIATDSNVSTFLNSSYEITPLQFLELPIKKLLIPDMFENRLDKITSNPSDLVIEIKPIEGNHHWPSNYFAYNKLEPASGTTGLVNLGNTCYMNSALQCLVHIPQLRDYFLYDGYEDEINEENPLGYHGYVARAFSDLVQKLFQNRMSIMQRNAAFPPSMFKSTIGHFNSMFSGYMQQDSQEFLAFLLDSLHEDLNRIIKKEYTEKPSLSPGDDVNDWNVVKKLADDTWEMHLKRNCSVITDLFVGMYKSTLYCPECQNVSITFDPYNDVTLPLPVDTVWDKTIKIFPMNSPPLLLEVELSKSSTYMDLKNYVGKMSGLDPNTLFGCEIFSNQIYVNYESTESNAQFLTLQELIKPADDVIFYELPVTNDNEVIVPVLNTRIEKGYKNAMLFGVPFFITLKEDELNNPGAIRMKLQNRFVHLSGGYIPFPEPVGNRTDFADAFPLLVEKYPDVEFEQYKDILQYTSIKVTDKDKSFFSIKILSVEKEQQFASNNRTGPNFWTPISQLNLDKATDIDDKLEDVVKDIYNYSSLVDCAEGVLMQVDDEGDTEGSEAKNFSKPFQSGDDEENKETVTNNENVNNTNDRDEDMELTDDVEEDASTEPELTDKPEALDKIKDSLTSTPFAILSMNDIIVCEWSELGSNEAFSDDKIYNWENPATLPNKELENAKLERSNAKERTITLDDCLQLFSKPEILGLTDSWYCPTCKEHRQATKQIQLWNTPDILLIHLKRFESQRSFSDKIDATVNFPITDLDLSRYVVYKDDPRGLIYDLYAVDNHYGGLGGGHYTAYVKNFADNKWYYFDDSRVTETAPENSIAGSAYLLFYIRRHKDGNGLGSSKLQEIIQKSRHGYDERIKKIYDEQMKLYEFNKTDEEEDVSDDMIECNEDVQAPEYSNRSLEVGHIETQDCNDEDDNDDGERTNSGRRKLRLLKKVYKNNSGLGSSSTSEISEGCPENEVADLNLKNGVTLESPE

For experiment [2], the target named is T1, FLAG-tagged full-length Ubp12 (S. cerevisiae). This is another data set of the same source.
In experiment [3] the target is T2, Rad23 (endogenous) (S. cerevisiae (endogenous in yeast)) (UniProt P32628).
T2 sequence: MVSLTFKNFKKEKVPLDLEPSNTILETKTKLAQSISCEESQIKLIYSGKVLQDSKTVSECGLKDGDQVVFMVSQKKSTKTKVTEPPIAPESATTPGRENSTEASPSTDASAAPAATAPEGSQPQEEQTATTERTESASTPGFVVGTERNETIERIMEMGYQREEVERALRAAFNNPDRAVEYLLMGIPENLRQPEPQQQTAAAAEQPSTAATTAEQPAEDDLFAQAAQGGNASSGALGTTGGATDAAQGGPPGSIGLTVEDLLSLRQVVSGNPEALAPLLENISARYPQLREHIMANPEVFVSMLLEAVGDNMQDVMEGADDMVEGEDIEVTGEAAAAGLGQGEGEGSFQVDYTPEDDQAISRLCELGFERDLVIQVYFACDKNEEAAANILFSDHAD

The target in experiment [4] is Cdc48 (S. cerevisiae (endogenous in yeast)) (UniProt P25694).
Experiment [5] has as its target T3, full-length Rad23 expressed from a low-copy plasmid (S. cerevisiae) (UniProt P32628).
T3 sequence: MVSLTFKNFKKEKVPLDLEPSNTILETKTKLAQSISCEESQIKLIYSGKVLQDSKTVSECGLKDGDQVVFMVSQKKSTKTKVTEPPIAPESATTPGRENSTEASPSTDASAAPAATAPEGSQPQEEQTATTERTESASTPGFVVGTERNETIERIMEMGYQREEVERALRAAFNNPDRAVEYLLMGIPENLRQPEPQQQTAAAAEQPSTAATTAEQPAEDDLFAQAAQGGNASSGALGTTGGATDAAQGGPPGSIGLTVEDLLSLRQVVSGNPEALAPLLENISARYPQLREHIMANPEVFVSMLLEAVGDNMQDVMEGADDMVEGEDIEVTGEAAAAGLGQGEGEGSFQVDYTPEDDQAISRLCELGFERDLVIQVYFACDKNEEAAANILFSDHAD

Like-named read-outs stand apart in the source and are kept apart here. Results are given in words; binding and its absence hold for the method and conditions named. Binding seen in cells or lysates may run through a third protein. Some binding calls cover weakened binding; strength is not graded here. Sequences can lack the tags named with a protein.

In the case of Cdc48 (from UniProt P25694 1-835), the binding entry in experiment [1] is listed as “binds”.

B1: Rad23 (endogenous) (protein, UniProt P32628 1-398)
chain: MVSLTFKNFKKEKVPLDLEPSNTILETKTKLAQSISCEESQIKLIYSGKVLQDSKTVSECGLKDGDQVVFMVSQKKSTKTKVTEPPIAPESATTPGRENSTEASPSTDASAAPAATAPEGSQPQEEQTATTERTESASTPGFVVGTERNETIERIMEMGYQREEVERALRAAFNNPDRAVEYLLMGIPENLRQPEPQQQTAAAAEQPSTAATTAEQPAEDDLFAQAAQGGNASSGALGTTGGATDAAQGGPPGSIGLTVEDLLSLRQVVSGNPEALAPLLENISARYPQLREHIMANPEVFVSMLLEAVGDNMQDVMEGADDMVEGEDIEVTGEAAAAGLGQGEGEGSFQVDYTPEDDQAISRLCELGFERDLVIQVYFACDKNEEAAANILFSDHAD
As for B1, in experiment [2], the binding result is on record as “binds”.

B2: HA-tagged Ubp12 (Ubp12^6HA) expressed from the endogenous promoter (enzyme, UniProt P39538 1-1254)
chain: MGSSDVSSRECSLVYNEDPDFTDGTTPCDRLGVDLMNVLDDKDEIKQESVPVSDREIEDTESDASAVSSFASANELIAEPHAASETNLGTNGQDGRNVLEQQRDVVARLIEENKETQKEGDKVCIVPKVWYDKFFDPDVTDPEDIGPINTRMICRDFENFVLEDYNRCPYLSIAEPVFNFLSEIYGMTSGSYPVVTNLVINQTTGELETEYNKWFFRLHYLTEKQDGRKRRHGQDDSIMYLSMSALNLVRDLVEKSMNLFFEKADHLDVNAVDFKIWFVSEGSDIATDSNVSTFLNSSYEITPLQFLELPIKKLLIPDMFENRLDKITSNPSDLVIEIKPIEGNHHWPSNYFAYNKLEPASGTTGLVNLGNTCYMNSALQCLVHIPQLRDYFLYDGYEDEINEENPLGYHGYVARAFSDLVQKLFQNRMSIMQRNAAFPPSMFKSTIGHFNSMFSGYMQQDSQEFLAFLLDSLHEDLNRIIKKEYTEKPSLSPGDDVNDWNVVKKLADDTWEMHLKRNCSVITDLFVGMYKSTLYCPECQNVSITFDPYNDVTLPLPVDTVWDKTIKIFPMNSPPLLLEVELSKSSTYMDLKNYVGKMSGLDPNTLFGCEIFSNQIYVNYESTESNAQFLTLQELIKPADDVIFYELPVTNDNEVIVPVLNTRIEKGYKNAMLFGVPFFITLKEDELNNPGAIRMKLQNRFVHLSGGYIPFPEPVGNRTDFADAFPLLVEKYPDVEFEQYKDILQYTSIKVTDKDKSFFSIKILSVEKEQQFASNNRTGPNFWTPISQLNLDKATDIDDKLEDVVKDIYNYSSLVDCAEGVLMQVDDEGDTEGSEAKNFSKPFQSGDDEENKETVTNNENVNNTNDRDEDMELTDDVEEDASTEPELTDKPEALDKIKDSLTSTPFAILSMNDIIVCEWSELGSNEAFSDDKIYNWENPATLPNKELENAKLERSNAKERTITLDDCLQLFSKPEILGLTDSWYCPTCKEHRQATKQIQLWNTPDILLIHLKRFESQRSFSDKIDATVNFPITDLDLSRYVVYKDDPRGLIYDLYAVDNHYGGLGGGHYTAYVKNFADNKWYYFDDSRVTETAPENSIAGSAYLLFYIRRHKDGNGLGSSKLQEIIQKSRHGYDERIKKIYDEQMKLYEFNKTDEEEDVSDDMIECNEDVQAPEYSNRSLEVGHIETQDCNDEDDNDDGERTNSGRRKLRLLKKVYKNNSGLGSSSTSEISEGCPENEVADLNLKNGVTLESPE
B2: the binding entry in experiment [3], in experiment [4] and in experiment [5] was “binds” each time.
